The results in this text go back to EP0322396A1, “Benzimidazole derivatives, their preparation and use” (Gerot-Pharmazeutika Gesellschaft m.b.H., priority 1987, dated 1989).

The nature of the data set: in vivo. The conditions noted are these: mouse, iv, Maus i.v.

The term LD50 denotes the dose at which mortality reaches 50%. Higher therefore signals a less toxic substance. The compound `COC(=O)C1=C(C)NC(C)=C(C(=O)OC)C1c1ccccc1[N+](=O)[O-]` [Nifedipin, reference compound] gave an LD50 of 4.2 mg/kg.
